The supplement of paper PMC12889115
The list shows a part of the results. These are raw signals, not scaled to a control.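 In the initial screen, polymyxin B was used at a concentration that permeabilizes Salmonella's outer membrane but not its inner membrane. Maximum growth was set by DMSO wells with or without polymyxin B. Since plates varied, data were ranked per plate, and compounds giving the lowest OD600 advanced as hits.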

System: Salmonella enterica serovar Typhimurium SL1344
Test: bacterial growth OD600 after 18 h with compound and polymyxin B; higher = more bacterial growth (less inhibition)
Details: 50 µM, Mueller-Hinton broth

SMILES | bacterial growth OD600 (polymyxin B 0.75 µg/mL) | bacterial growth OD600 (polymyxin B 1 µg/mL)
Cc1ccc2c(C)nc(N3CCCC(C(=O)NCC(C)C)C3)nc2c1 (stereo unspecified) | 0.908 | –
CCOC(=O)C1(CCc2ccccc2)CCN(C(=O)CCc2cnn(C)c2)CC1 | – | 0.807
COCCO[C@H]1[C@H](NC(=O)C(C)C)c2ccccc2C12CCN(C(=O)c1ccsc1)CC2 | 0.902 | –
O=C(c1ccoc1)N1CCC2(CCCN(Cc3ccc(F)c(F)c3)C2=O)C1 (stereo unspecified) | – | 0.963
Cc1c(C(=O)N2CC3CCC2C3)cnn1-c1ncc2c(n1)-c1ccccc1CCC2 (stereo unspecified) | 0.86 | –
Cc1ccc(CN(C)C(=O)C2CCC(=O)N(CCN3CCOCC3)C2)o1 (stereo unspecified) | – | 0.921
Fc1ccc(-c2cnnc(NCCCc3cccnc3)n2)cc1 | 0.802 | –
O=C(c1csc2nc(-c3cccc(Cl)c3)cn12)N1CCC(CO)CC1 | 0.858 | –
COc1ccc(CCCNC(=O)c2ccc(N3CCC(O)CC3)nc2)cc1 | – | 0.933
Cc1ccc(F)cc1CNC1CCN(c2ccc(C(=O)NCCN3CCOCC3)cc2)CC1 | 0.716 | –
Cc1cc(C)c(C(=O)N2CCCC(Nc3ccccc3)C2)[nH]1 (stereo unspecified) | 0.85 | –
CN(CC1CCCN(CCc2ccc(F)cc2)C1)C(=O)C1=CC(=O)CC(C)(C)O1 (stereo unspecified) | – | 1.11
CN(Cc1ccon1)C(=O)c1cc(COc2cccc(C(F)(F)F)c2)[nH]n1 | 0.749 | –
Cc1ccc2c(c1)CN(Cc1cccnc1)CC(c1ccsc1)O2 (stereo unspecified) | 0.003 | –
CC(C)CCNC(=O)CCN1Cc2ccccc2OC(c2ccccc2F)C1 (stereo unspecified) | 0.002 | –
O=C(NCCCN1CCCC1=O)c1ccc2nc(C3CCCCC3)oc2c1 | – | 0.85

SMILES | bacterial growth OD600 (polymyxin B 0.75 µg/mL) | bacterial growth OD600 (polymyxin B 1 µg/mL)
COc1cccc(-c2ccc(NC(=O)C3CCCN3C3CCN(C)CC3)cc2)c1 (stereo unspecified) | 0.592 | –
CCOc1ccc(CN2CCc3c(C(=O)N4CCCCC4C(=O)OC)c(OC)cc(=O)n3CC2)cc1 (stereo unspecified) | 0.87 | –
COC(=O)[C@@H]1CCCN1C(=O)C1CCN(c2nc(C)c3ccc(S(C)(=O)=O)cc3n2)CC1 | 0.843 | –
COC(=O)CCC(=O)N1CCCC(N2CCN(c3cccc(C(F)(F)F)c3)CC2)C1 (stereo unspecified) | – | 0.97
CC1CN(CC(=O)NCc2nc(-c3ccccc3)cs2)Cc2cc(Cl)ccc2O1 (stereo unspecified) | 0.005 | –
CN(C(=O)c1ccco1)C(Cc1ccccc1Cl)C1CCN(Cc2cccc3cccnc23)CC1 (stereo unspecified) | 0.836 | –
C=CC[C@@H]1CC=C[C@@H](C)N1C(=O)CC1(c2ccccc2OC)CC(=O)N(CCCOC)C1=O (stereo partly specified) | 0.008 | –
O=C1CCCCN1CC(=O)N1CCc2[nH]nc(-c3ccc(Cl)cc3)c2C1 | 0.766 | –
COc1ccccc1N1CCN(c2nc(CNC(=O)c3cccc(F)c3)nc3ccccc23)CC1 | 0.75 | –
O=C(Cn1nnnc1CN1CCCCCC1)N1CC[C@@H](O)C1 | 0.846 | –
CC(NC(=O)c1ccc2oc(CCc3ccccc3)nc2c1)c1ccncn1 (stereo unspecified) | 0.781 | –
CCN1CCCC1CNC(=O)CCC1CCN(Cc2ccc(Cl)s2)CC1 (stereo unspecified) | – | 0.943
COC(=O)c1ccc(-c2nc(CN(C)C(C)c3ccon3)c(C)o2)cc1 (stereo unspecified) | – | 0.838
COc1ccc(CN2CCN(CC3CCCCC3)C(CCO)C2)cc1OC (stereo unspecified) | – | 0.94
CN(C(=O)c1ccc(OC2CCN(C(=O)C3CC3)CC2)cc1)C1CCCc2ccccc21 (stereo unspecified) | – | 0.704

Copied from the list.
bacterial growth OD600 (polymyxin B 0.75 µg/mL) with `CCOc1ccc(CN2CCc3c(C(=O)N4CCCCC4C(=O)OC)c(OC)cc(=O)n3CC2)cc1` (stereo unspecified) is entered as 0.87
bacterial growth OD600 (polymyxin B 0.75 µg/mL) with `COc1cccc(-c2ccc(NC(=O)C3CCCN3C3CCN(C)CC3)cc2)c1` (stereo unspecified) is entered as 0.592
